Results are given in words; binding and its absence hold for the method and conditions named. In cells and extracts the contact can be indirect.

The chains behind the UniProt entries cited, without tags or fusion partners.
UniProt Q62760: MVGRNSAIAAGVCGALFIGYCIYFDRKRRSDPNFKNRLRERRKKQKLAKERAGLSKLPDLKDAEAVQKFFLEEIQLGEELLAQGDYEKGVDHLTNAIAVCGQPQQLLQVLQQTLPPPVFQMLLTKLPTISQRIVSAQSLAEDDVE

Experimental findings from paper PMC8671480 are described below.

This test has as its target T1, tumor necrosis factor receptor-associated protein 1 (TRAP1) (rat (endogenous in H9C2 and in rat heart tissue)) (UniProt Q5XHZ0).
T1 sequence: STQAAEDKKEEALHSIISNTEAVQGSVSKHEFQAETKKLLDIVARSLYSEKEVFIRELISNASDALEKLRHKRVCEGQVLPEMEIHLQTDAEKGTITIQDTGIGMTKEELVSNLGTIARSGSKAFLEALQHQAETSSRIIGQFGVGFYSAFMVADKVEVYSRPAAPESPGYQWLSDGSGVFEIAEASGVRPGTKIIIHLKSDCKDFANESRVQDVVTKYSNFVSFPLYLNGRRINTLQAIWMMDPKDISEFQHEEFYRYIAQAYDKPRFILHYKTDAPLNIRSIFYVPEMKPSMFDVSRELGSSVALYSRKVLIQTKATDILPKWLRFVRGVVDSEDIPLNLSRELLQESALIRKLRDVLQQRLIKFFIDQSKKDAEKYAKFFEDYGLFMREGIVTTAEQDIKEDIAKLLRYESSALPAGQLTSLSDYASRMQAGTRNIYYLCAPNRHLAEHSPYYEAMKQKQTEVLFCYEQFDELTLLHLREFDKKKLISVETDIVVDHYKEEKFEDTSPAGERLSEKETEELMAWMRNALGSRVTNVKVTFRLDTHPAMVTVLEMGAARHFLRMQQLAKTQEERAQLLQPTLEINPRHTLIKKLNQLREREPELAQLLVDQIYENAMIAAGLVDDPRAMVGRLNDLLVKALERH
Description: co-IP; H9C2 lysate (500 μg total protein) with anti-TRAP1 or anti-MIC60 on protein A/G magnetic beads, 4 °C, 6 h, washed with PBST (PBS, 0.5% Triton X-100); Western blot.

Turning to TOM20 (from UniProt Q62760 1-145), the binding result is “no binding”.

B1: Prohibitin (protein, UniProt P67779 1-272)
chain: MAAKVFESIGKFGLALAVAGGVVNSALYNVDAGHRAVIFDRFRGVQDIVVGEGTHFLIPWVQKPIIFDCRSRPRNVPVITGSKDLQNVNITLRILFRPVASQLPRIYTSIGEDYDERVLPSITTEILKSVVARFDAGELITQRELVSRQVSDDLTERAATFGLILDDVSLTHLTFGKEFTEAVEAKQVAQQEAERARFVVEKAEQQKKAAIISAEGDSKAAELIANSLATAGDGLIELRKLEAAEDIAYQLSRSRNITYLPAGQSVLLQLPQ
On to B1, for which the binding result is reported as “no binding”.
